PubChem BioAssay AID504467 (National Center for Advancing Translational Sciences (NCATS), 2011)
The campaign covered roughly 330,000 compounds. About 7,700 (2.3%) were called active. Inconclusive means that the source gave no clear call. Such entries were picked first, then a sample of the others. The call rests on the fitted dose curve; in most records, active means well fitted inhibition curve with a large enough effect; inconclusive means small, poorly fitted or top-dose-only effect, or effect the other way; inactive means flat fitted curve, though single readings scatter. Potencies of inconclusive entries are doubtful fits and often do not repeat.

Assay: qHTS screen for small molecules that inhibit ELG1-dependent DNA repair in human embryonic kidney (HEK293T) cells expressing luciferase-tagged ELG1; further: nearly all actives have a fitted effect of over 55% in size
Conditions: HEK293T ELG1-luciferase reporter, luminescence, 16 h, DNA damage induced by 5-fluorouridine; series mostly up to 46.1 µM
Method in brief: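 Quantitative HTS, concentration-response format. 2,000 cells/well co-treated with 5-fluorouridine and compound, 16 hr in 5% CO2 at 37 °C; ONE-Glo luminescence read after 30 min.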
Potency means the concentration at half of the fitted maximal effect.

| SMILES | Potency |
| --- | --- |
| Cc1cccc(NC(=O)Cn2c([N+](=O)[O-])cnc2C)c1C | inactive |
| CCCCc1nc2sc3c(SCCN(C)C)ncnc3c2c2c1CCC2 | inactive |
| COc1ccc(-c2cc(C#N)nc(Cl)n2)cc1 | inactive |
| CCOC(=O)c1c2c3c(cccc3[nH]c1=O)C(=O)c1ccccc1-2 | inactive |
| CNC(=O)CSc1ncnc2c1cnn2-c1ccccc1 | inconclusive: 20.6 µM [activator, single point] |
| CSc1nc(N(C)CCO)c2sc3nc(-c4ccco4)c4c(c3c2n1)CCC4 | inactive |
| CCc1ccc(C(=O)/C=C2\Sc3ccccc3NC2=O)cc1 | inconclusive: 18.4 µM [activator, partial curve] |
| Cc1ccc(NC(=O)c2cnc(SCC(=O)c3ccccc3)n(C)c2=O)cc1 | inactive |
| COc1ccc(S(=O)(=O)N2CC(C)N(C(=O)N(C)C)C2C(C)C)cc1 (centres undefined) | inactive |
| Fc1cccc(/C=N/n2c(C3CCCCC3)n[nH]c2=S)c1 | inactive |
| O=C(Nc1cccc([N+](=O)[O-])c1)Nc1ccc2c(c1)CCC2 | inconclusive: 6.51 µM [activator, single point] |
| CCn1c(=O)c2c(nc3n2CCCN3CCc2ccc(OC)c(OC)c2)n(C)c1=O | inconclusive: 11.6 µM [inhibitor, partial curve] |
| CCOc1ccc(N2CC(C(=O)NC3CCSC3=O)CC2=O)cc1 (centres undefined) | inactive |
| COc1ccc(/C=N/N2CCN(C3c4ccccc4-c4ccccc43)CC2)cc1O | inactive |
| Cc1ccc(C(=O)Nc2ccc(C(=O)/C=C/c3cccs3)cc2)cc1 | inconclusive: 16.4 µM [activator, partial curve] |
| O=C(CCc1ccccc1)NC(=S)Nc1cccc(Br)c1 | inactive |
| O=C(NCc1cccs1)c1cc(-c2cccs2)on1 | inconclusive: 4.11 µM [activator, full curve] |
| C=CCn1c(SCC(N)=O)nc2scc(-c3ccc(C)o3)c2c1=O | inconclusive: 8.2 µM [activator, partial curve] |
| COc1ccc(NC(=O)CCCC(=O)c2ccccc2)c(OC)c1 | inconclusive: 25.9 µM [activator, single point] |
| Nc1c(C(=O)Nc2ccc(F)cc2)sc2nc(-c3ccco3)ccc12 | inconclusive: 29.1 µM [inhibitor, single point] |
| CCOC(=O)N1CCN(C(=O)COc2cccc3c2CCN(Cc2ccccc2C)C3=O)CC1 | inconclusive: 29.1 µM [inhibitor, single point] |
| CN(C(=O)c1ccco1)c1nc(-c2ccccc2)cs1 | inconclusive: 14.6 µM [activator, partial curve] |
| COC(=O)c1[nH]c2cc(OC)ccc2c1NC(=O)CCN1CCN(c2cccc(C)c2C)CC1 | inconclusive: 23.1 µM [inhibitor, single point] |
| CCOC(=O)N1CCN(Cc2c(F)cccc2Cl)CC1 | inactive |
| O=C(COC(=O)COc1ccc2c(c1)CCC2)Nc1ccccc1 | inconclusive: 20.6 µM [activator, partial curve, poor fit] |

Some of the entries above, set out differently:
SMILES | Potency
CCn1c(=O)c2c(nc3n2CCCN3CCc2ccc(OC)c(OC)c2)n(C)c1=O | inconclusive: 11.6 µM [inhibitor, partial curve]
CCOc1ccc(N2CC(C(=O)NC3CCSC3=O)CC2=O)cc1 (centres undefined) | inactive
COc1ccc(/C=N/N2CCN(C3c4ccccc4-c4ccccc43)CC2)cc1O | inactive

The list continues.

| SMILES | Potency |
| --- | --- |
| O=C1CSC(=Nc2ccc(Cl)cc2)N1 | inactive |
| O=C(COc1ccc2cc(-c3ccccc3)c(=O)oc2c1)NCC1CCC(C(=O)O)CC1 (centres undefined) | inconclusive: 8.2 µM [activator, single point] |
| CC(=O)Nc1ccc(-c2csc(NCc3ccccc3)n2)cc1 | inconclusive: 16.4 µM [activator, partial curve] |
| COc1cc(C(=O)NC(C)C2CC3CCC2C3)cc(OC)c1OC (centres undefined) | inactive |
| CCc1nnc(N2C(=O)c3ccccc3C2(O)c2ccccc2)s1 (centres undefined) | inactive |
| CCOC(=O)Cc1csc(NC(=O)CSc2nnc(-c3ccc(OC)cc3)n2C)n1 | inconclusive: 29.1 µM [inhibitor, single point] |
| Cn1c(=O)c(C(=O)Nc2ccccc2S(N)(=O)=O)c(O)c2ccccc21 | inconclusive: 29.1 µM [activator, single point] |
| CCCC(c1nnnn1Cc1cccs1)N1CCN(c2ccc(OC)cc2)CC1 (centres undefined) | inconclusive: 29.1 µM [inhibitor, single point] |
| Cc1occc1C(=O)NNC(=S)Nc1ccccc1C(F)(F)F | inconclusive: 16.4 µM [activator, partial curve] |
| COc1ccc(C2C(C(C)=O)=C(O)C(=O)N2c2nccs2)c(OC)c1 (centres undefined) | inactive |
| O=C(CSc1ncnc2ccccc12)Nc1ccc(N2CCOCC2)cc1 | inconclusive: 2.31 µM [inhibitor, partial curve, poor fit] |
| COc1ccc2oc(=O)c(C(=O)Nc3ccccc3C)cc2c1 | inconclusive: 14.1 µM [activator, partial curve, poor fit] |
| Cc1ccc2cc(CN(CC3CCCO3)C(=S)Nc3ccccc3)c(=O)[nH]c2c1 (centres undefined) | inconclusive: 5.8 µM [inhibitor, partial curve] |
| Clc1ccccc1-c1nnc2sc(-c3ccncc3)nn12 | inconclusive: 14.6 µM [inhibitor, partial curve, poor fit] |
| COC(=O)C1=CN(C)C=C(C(=O)OC)C1c1ccc(O)c(OC)c1 | inconclusive: 29.1 µM [activator, single point] |
| CCN(CC)S(=O)(=O)c1cc(NC(=O)CO/N=C(\N)c2ccccc2Cl)ccc1C | inconclusive: 20.6 µM [inhibitor, single point] |
| Cc1ccc(Nc2nc(-c3cccnc3)cs2)cc1Cl | inconclusive: 2.91 µM [activator, full curve] |
| CC(C)(C)c1ccc(NC(=O)C2=CN3CCS(=O)(=O)N=C3C=C2)cc1 | inactive |
| CCOc1ccccc1C(=O)NCC(=O)Nc1ccc(-c2ccccc2)cc1 | inactive |
| COc1cccc(NC(=O)CN(c2cccc(C(F)(F)F)c2)S(C)(=O)=O)c1 | inconclusive: 20.6 µM [inhibitor, single point] |
| O=S(=O)(c1ccc(Cl)cc1)c1cnc2ccccc2n1 | inactive |
| CCN(Cc1ccncc1)C(=O)C1CCC(=O)N(Cc2ccc(Cl)cc2)C1 (centres undefined) | inactive |
| CN1CCN2c3ncccc3Cc3ccccc3[C@@H]2C1 | inconclusive: 0.0411 µM [inhibitor, single point] |
| O=C(/C=C/c1ccco1)NC(=S)Nc1cccc(C(=O)O)c1 | inconclusive: 20.6 µM [activator, partial curve, poor fit] |
| COC(=O)[C@@H]1CC[C@@](C)(c2ccc(OC)cc2)C1(C)C | inconclusive: 25.1 µM [activator, single point] |

| SMILES | Potency |
| --- | --- |
| O=C(O)c1ccc(Nc2ccc3nonc3c2[N+](=O)[O-])cc1 | inactive |
| NC(=O)c1sc2nc(-c3cccnc3)ccc2c1N | inconclusive: 13 µM [activator, partial curve, poor fit] |
| CCC(=O)Oc1cccc(C(=O)Nc2ccc(-c3nnc(-c4ccco4)o3)cc2)c1 | inconclusive: 2.91 µM [activator, partial curve, poor fit] |
| O=C(Nc1ccc(Cl)c(Cl)c1)Nc1cc(C(=O)NC2CC2)ccc1Cl | active: 25.9 µM |
| O=C(NCCO)/C(=C\c1ccc([N+](=O)[O-])o1)NC(=O)c1ccccc1 | inconclusive: 13 µM [inhibitor, partial curve, poor fit] |
| COc1cccc(C(=O)CC(=O)C(=O)Nc2cc(OC)c(OC)c(OC)c2)c1 | inactive |
| O=C(O)c1ccc(CNc2ccccc2C(=O)O)cc1 | inactive |
| Cc1ccccc1C(=O)N(C)c1ccccc1C(=O)NCc1ccccc1 | inactive |
| Cc1ccc(CNc2nc(-c3cccs3)nc3ccccc23)cc1 | inconclusive: 29.1 µM [inhibitor, single point] |
| Cn1c(-c2cc3ccccc3oc2=O)nc2ccccc21 | inconclusive: 11.6 µM [activator, partial curve] |
| Cc1nc(N2N=C3/C(=C/c4ccc(F)cc4)CCCC3C2c2ccc(F)cc2)sc1C(=O)N(C)C (centres undefined) | inconclusive: 29.1 µM [inhibitor, single point] |
| O=C(CCc1ccc(S(=O)(=O)N2CCOCC2)cc1)OCc1nc2ccccc2s1 | inconclusive: 25.9 µM [activator, single point] |
| CCc1ccc(NC(=O)C2CCCN(S(=O)(=O)c3ccc4c(c3)CC(C)N4C(C)=O)C2)cc1 (centres undefined) | inconclusive: 20.6 µM [inhibitor, partial curve, poor fit] |
| CCOC(=O)c1ccc(NC(=O)c2ccco2)cc1 | inconclusive: 9.2 µM [activator, partial curve] |
| Cc1ccc(C2=NC3(CCCCC3)N=C2SCC(=O)Nc2ccc3c(c2)OCCO3)cc1 | inconclusive: 16.4 µM [inhibitor, single point] |
| COc1ccc(N2C(=O)C(Cl)=C(N3CCOCC3)C2=O)cc1 | inactive |
| CCOC(=O)C1=C(CSc2nc3c(cc2C#N)CN(C)CC3)OC(N)=C(C#N)C1c1ccc(Cl)cc1 (centres undefined) | inactive |
| CC1S/C(=N/N=C/c2cccs2)NC1=O (centres undefined) | inconclusive: 20.6 µM [activator, single point] |
| O=C(Nc1ccccc1)OC1CC2CC1C1CCCC21 (centres undefined) | inconclusive: 18.3 µM [activator, partial curve] |
| Cc1cc(-c2nnc3n2N=C(c2ccc(-c4ccccc4)cc2)CS3)n[nH]1 | inconclusive: 20.6 µM [inhibitor, single point] |
| CCOCCOC(=O)COc1ccc(N2C(=O)c3ccccc3C2=O)cc1 | inactive |
| CCn1c2ccc(F)cc2c2nnc(SCCN3CCCCC3)nc21 | inactive |
| C=CCn1cccc(C(=O)Nc2ccc(OC)c(OC)c2)c1=O | inactive |
| CCCC1(C(=O)OCC)NC(c2ccc(N(C)C)cc2)C2C(=O)N(c3ccc(OCC)cc3)C(=O)C21 (centres undefined) | inconclusive: 13 µM [inhibitor, partial curve] |
